Assay results from patent US8404844B2, “Perylene semiconductors and methods of preparation and use thereof” (BASF SE, priority 2008, dated 2013).

Experiment: FET (thin-film transistor) device fabrication and measurements
Settings: top-contact TFT on Si/SiO2, ambient atmosphere; for Ion:Ioff, Spin-Coating / Mobility, Spin-Coating: spin-coated film; for Mobility, Spin-Coating / Mobility, Vapor Deposition: saturation regime; for Ion:Ioff, Vapor Deposition / Mobility, Vapor Deposition: vacuum vapor-deposited film

Row | SMILES | Ion:Ioff, Spin-Coating | Mobility, Spin-Coating | Ion:Ioff, Vapor Deposition | Mobility, Vapor Deposition
1 | CCCC(CC)N1C(=O)c2ccc3c4c(C#N)cc5c6c(ccc(c7c(C#N)cc(c2c37)C1=O)c64)C(=O)N(C(CC)CCC)C5=O (centres unmarked) [PDI1EB-CN2, N,N′-bis(1-ethylbutyl)-1,7-dicyanoperylene-3,4:9,10-bis(dicarboximide)] | 10^5 | 0.005-0.01 cm^2/Vs | 10^8 | 0.1-0.5 cm^2/Vs
2 | CCC(CC)N1C(=O)c2ccc3c4c(C#N)cc5c6c(ccc(c7c(C#N)cc(c2c37)C1=O)c64)C(=O)N(C(CC)CC)C5=O [PDI1EPr-CN2, N,N′-bis(1-ethylpropyl)-1,7-dicyanoperylene-3,4:9,10-bis(dicarboximide)] | 10^5 | 0.005-0.01 cm^2/Vs | 10^7 | 0.01-0.1 cm^2/Vs
3 | CC(C)CC(C)N1C(=O)c2ccc3c4c(C#N)cc5c6c(ccc(c7c(C#N)cc(c2c37)C1=O)c64)C(=O)N(C(C)CC(C)C)C5=O (centres unmarked) [PDI1M3MB-CN2, N,N′-bis(1,3-dimethylbutyl)-1,7-dicyanoperylene-3,4:9,10-bis(dicarboximide)] | 10^7 | 0.03-0.2 cm^2/Vs | 10^7 | 0.3-0.5 cm^2/Vs
4 | CCCC(C)N1C(=O)c2ccc3c4c(C#N)cc5c6c(ccc(c7c(C#N)cc(c2c37)C1=O)c64)C(=O)N(C(C)CCC)C5=O (centres unmarked) [PDI1MB-CN2, N,N′-bis(1-methylbutyl)-1,7-dicyanoperylene-3,4:9,10-bis(dicarboximide)] | 10^5-10^7 | 0.03-0.1 cm^2/Vs | 10^9-10^10 | 0.8-2.0 cm^2/Vs
5 | CCCCCC(C)N1C(=O)c2ccc3c4c(C#N)cc5c6c(ccc(c7c(C#N)cc(c2c37)C1=O)c64)C(=O)N(C(C)CCCCC)C5=O (centres unmarked) [PDI1MH-CN2, N,N′-bis(1-methylhexyl)-1,7-dicyanoperylene-3,4:9,10-bis(dicarboximide)] | 10^6-10^8 | 0.07-0.2 cm^2/Vs | 10^8 | 0.1-0.4 cm^2/Vs
6 | CCCCC(C)N1C(=O)c2ccc3c4c(C#N)cc5c6c(ccc(c7c(C#N)cc(c2c37)C1=O)c64)C(=O)N(C(C)CCCC)C5=O (centres unmarked) [PDI1MP-CN2, N,N′-bis(1-methylpentyl)-1,7-dicyanoperylene-3,4:9,10-bis(dicarboximide)] | 10^5-10^8 | 0.03-0.2 cm^2/Vs | 10^8 | 0.3-0.8 cm^2/Vs
7 | CCC(C)N1C(=O)c2ccc3c4c(C#N)cc5c6c(ccc(c7c(C#N)cc(c2c37)C1=O)c64)C(=O)N(C(C)CC)C5=O (centres unmarked) [PDI1MPr-CN2, N,N′-bis(1-methylpropyl)-1,7-dicyanoperylene-3,4:9,10-bis(dicarboximide)] | 10^5-10^7 | 0.02-0.1 cm^2/Vs | 10^7 | 0.2-0.8 cm^2/Vs
8 | CCCCC(CC)CN1C(=O)c2ccc3c4c(C#N)cc5c6c(ccc(c7c(C#N)cc(c2c37)C1=O)c64)C(=O)N(CC(CC)CCCC)C5=O (centres unmarked) [PDI2EH-CN2, N,N′-bis(2-ethylhexyl)-1,7-dicyanoperylene-3,4:9,10-bis(dicarboximide), reference compound] | 10^6-10^7 | 0.2-0.3 cm^2/Vs | 10^7-10^8 | 0.1-0.3 cm^2/Vs
9 | CCCCC(C)CN1C(=O)c2ccc3c4c(C#N)cc5c6c(ccc(c7c(C#N)cc(c2c37)C1=O)c64)C(=O)N(CC(C)CCCC)C5=O (centres unmarked) [PDI2MH-CN2, N,N′-bis(2-methylhexyl)-1,7-dicyanoperylene-3,4:9,10-bis(dicarboximide), reference compound] | 10^6 | 0.01 cm^2/Vs | 10^7 | 0.1-0.3 cm^2/Vs
10 | CCCCCCCCN1C(=O)c2ccc3c4c(C#N)cc5c6c(ccc(c7c(C#N)cc(c2c37)C1=O)c64)C(=O)N(CCCCCCCC)C5=O [PDI8-CN2, N,N′-Bis(4-n-octyl)-1,7-dicyanoperylene-3,4:9,10-bis(dicarboximide), reference compound] | 10^2-10^4 | 10^−5-10^−3 cm^2/Vs | 10^4-10^5 | 0.01-0.2 cm^2/Vs
11 | CC(C)=CCC[C@H](C)CCN1C(=O)c2ccc3c4c(C#N)cc5c6c(ccc(c7c(C#N)cc(c2c37)C1=O)c64)C(=O)N(CC[C@@H](C)CCC=C(C)C)C5=O [PDICitr-CN2, N,N′-bis[(3S)-3,7-dimethyl-6-octenyl]-1,7-dicyanoperylene-3,4:9,10-bis(dicarboximide), reference compound] | 10^1-10^2 | 10^−4-10^−3 cm^2/Vs | 10^3-10^5 | 0.01-0.1 cm^2/Vs
